The target in experiment [1] is GST-MTMR2 (Myotubularin-related 2) (not stated (human or mouse cDNA cloned)) (UniProt Q13614). The experiment is described as follows: pull-down; GST fusion protein or GST immobilised on glutathione-Sepharose beads, incubated 4 h at 4°C with lysates of mouse brain or isolated rat Schwann cells (1% NP-40, 50 mM Tris pH 7.4, 10% glycerol, 100 mM NaCl, 10 mM NaF, 1 mM Na-vanadate); three washes with 0.5% NP-40; immunoblotting; only the target purified.

By UniProt entry, the sequences of proteins in these tests, tags left out.
UniProt Q13614: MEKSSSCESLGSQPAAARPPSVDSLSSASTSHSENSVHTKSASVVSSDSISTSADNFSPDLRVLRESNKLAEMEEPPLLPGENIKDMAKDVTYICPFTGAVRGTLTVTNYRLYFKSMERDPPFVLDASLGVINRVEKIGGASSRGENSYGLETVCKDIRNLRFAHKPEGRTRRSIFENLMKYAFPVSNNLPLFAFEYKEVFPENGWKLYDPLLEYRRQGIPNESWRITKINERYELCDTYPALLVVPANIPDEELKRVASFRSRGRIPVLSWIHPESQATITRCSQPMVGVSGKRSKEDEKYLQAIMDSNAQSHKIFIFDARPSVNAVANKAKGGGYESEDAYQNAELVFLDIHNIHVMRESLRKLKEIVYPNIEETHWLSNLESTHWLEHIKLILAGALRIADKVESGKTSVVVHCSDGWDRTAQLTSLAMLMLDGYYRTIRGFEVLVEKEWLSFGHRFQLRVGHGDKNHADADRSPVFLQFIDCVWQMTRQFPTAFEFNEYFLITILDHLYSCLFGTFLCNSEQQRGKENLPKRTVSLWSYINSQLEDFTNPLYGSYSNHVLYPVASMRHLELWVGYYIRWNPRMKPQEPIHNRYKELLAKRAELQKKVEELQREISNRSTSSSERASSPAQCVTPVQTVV
UniProt Q62696: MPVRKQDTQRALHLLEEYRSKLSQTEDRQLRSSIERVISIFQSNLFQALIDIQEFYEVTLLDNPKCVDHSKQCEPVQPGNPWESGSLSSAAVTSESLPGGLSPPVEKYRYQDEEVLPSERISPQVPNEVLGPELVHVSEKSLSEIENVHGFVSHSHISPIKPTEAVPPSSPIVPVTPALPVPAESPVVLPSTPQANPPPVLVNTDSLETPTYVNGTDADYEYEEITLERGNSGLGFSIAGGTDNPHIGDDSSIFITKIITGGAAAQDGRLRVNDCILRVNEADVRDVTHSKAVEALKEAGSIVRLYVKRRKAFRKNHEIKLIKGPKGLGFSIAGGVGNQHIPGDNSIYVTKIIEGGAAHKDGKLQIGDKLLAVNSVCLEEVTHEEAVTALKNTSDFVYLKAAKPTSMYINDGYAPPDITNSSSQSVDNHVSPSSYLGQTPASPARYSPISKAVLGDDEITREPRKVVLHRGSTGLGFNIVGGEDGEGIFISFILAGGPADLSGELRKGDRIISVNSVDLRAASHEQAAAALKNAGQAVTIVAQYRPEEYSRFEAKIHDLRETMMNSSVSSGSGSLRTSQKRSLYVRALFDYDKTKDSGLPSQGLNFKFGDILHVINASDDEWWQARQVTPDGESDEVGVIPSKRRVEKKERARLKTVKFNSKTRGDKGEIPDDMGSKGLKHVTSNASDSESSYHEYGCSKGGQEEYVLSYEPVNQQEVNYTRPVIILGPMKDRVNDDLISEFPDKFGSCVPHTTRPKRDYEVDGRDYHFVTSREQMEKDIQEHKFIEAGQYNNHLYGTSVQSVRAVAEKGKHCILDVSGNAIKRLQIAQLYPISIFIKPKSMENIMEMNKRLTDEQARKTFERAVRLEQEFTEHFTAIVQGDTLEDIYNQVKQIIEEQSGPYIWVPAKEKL

For experiment [2] the target is unchanged. The experiment is described as above. This is another data set of the same source.

Where two headings read alike, the source gives them in different places. These are yes or no findings as the source states them, for the method shown. In cells and extracts the contact can be indirect. Some entries that bind do so weakly or less than the wild type.

On to “Dlg1 (rat, from isolated Schwann cell lysate) (from UniProt Q62696 1-911)”, for which the binding entry in experiment [1] is given as “binds”.

B1: Fig4 (mouse, from brain lysate) (enzyme, UniProt Q91WF7 1-907)
chain: MPTAAAPIISSVQKLVLYETRARYFLVGSNHAETKYRVLKIDRTEPKDLVVIDDRHVYTQQEVRELLGRLDLGNRTKMSQKGSSGLFRAVSAFGVVGFVRFLEGYYIVLITKRRKMADIGGHAIYKIEDTSMIYIPNDSVRISHPDEARYLRIFQNVDLSSNFYFSYSYDLSHSLQYNLTVLRMPLEMLKSETSKACQESFDIFEDEGLITQGGSGVFGISSEPYMKYVWNGELLDIIKNTVHRDWLLYIIHGFCGQSKLLIYGRPVYVTLIARRSSRFAGTRFLKRGANCEGDVANEVETEQILCDASVMSFTAGSYSSYVQVRGSVPLFWSQDISTMMPKPPITLDQADPFAHVAALHFDQMLQRFGSPIIILNLVKEREKRKHERILSEELVAAVTYLNQFLPPEHTIVYIPWDMAKYTKSKLCNVLDRLNVIAESVVKKTGFFVNRPDSYCSILRPDEKWNELGGHVIPTGRLQTGILRTNCVDCLDRTNTAQFMVGKCALAYQLYSLGLIDKPNLQFDTDAVRLFEELYEDHGDTLSLQYGGSQLVHRVKTYRKIAPWTQHSKDIMQTLSRYYSNAFSDADRQDSINLFLGVFHPTEGKPHLWELPTDFYLHHKNTMSLLPPRRSYTYWWTPEVVKHLPLPYDEVICAANLKKLMVKKFHRWEEEIDIHNEFFRPYELSSFDDTFCLAMTSSARDFMPKTVGIDPSPFTVRKPDETGKSVLGNKNTREEAVLQRKTAASAPPPPSEEAVSSSSEDDSGTDREDEGSISQRSTPVKMTDTGDSAKATENVVQPMKEVYGVSLSSSLSEEDHSIYARFVQLGQSQHKQDRGNQQLCSRCSDGVIKLTPISAFSQDNIYEVQPPRVDRKSTEIFQAHIQASQGIMQPLGKEDTAMYREYIRNRYL
As to B1, in experiment [2], the binding result was “no binding”.

The record behind these values is article PMC3197679.
